Values quoted from earlier work as cited in patent US20030138375A1, “Individualization of therapy with Alzheimer's disease agents” (priority 2001, published 2003).
Counter-ions that a name gives are not always drawn.

How the values were obtained:
[1] = in vivo; cited from earlier work
human plasma proteins = conditions: concentration range 2-1000 ng/ml; cited from earlier work

## COc1cc2c(cc1OC)C(=O)C(CC1CCN(Cc3ccccc3)CC1)C2 (racemic) [Donepezil, (±)-2,3-dihydro-5,6-dimethoxy-2-[[1-(phenylmethyl)-4-piperidinyl]methyl] -1H-inden-1-onehydrochloride]
[1]
  mean apparent plasma clearance (Cl/F): 2.17 mL/min/kg
  steady state volume of distribution: 12 L/kg
Human plasma proteins
  bound to alpha1-125acid glycoprotein: about 21%
